From paper PMC5327418

Chains of the proteins cited; added tags and fusions are not shown.
UniProt P32569: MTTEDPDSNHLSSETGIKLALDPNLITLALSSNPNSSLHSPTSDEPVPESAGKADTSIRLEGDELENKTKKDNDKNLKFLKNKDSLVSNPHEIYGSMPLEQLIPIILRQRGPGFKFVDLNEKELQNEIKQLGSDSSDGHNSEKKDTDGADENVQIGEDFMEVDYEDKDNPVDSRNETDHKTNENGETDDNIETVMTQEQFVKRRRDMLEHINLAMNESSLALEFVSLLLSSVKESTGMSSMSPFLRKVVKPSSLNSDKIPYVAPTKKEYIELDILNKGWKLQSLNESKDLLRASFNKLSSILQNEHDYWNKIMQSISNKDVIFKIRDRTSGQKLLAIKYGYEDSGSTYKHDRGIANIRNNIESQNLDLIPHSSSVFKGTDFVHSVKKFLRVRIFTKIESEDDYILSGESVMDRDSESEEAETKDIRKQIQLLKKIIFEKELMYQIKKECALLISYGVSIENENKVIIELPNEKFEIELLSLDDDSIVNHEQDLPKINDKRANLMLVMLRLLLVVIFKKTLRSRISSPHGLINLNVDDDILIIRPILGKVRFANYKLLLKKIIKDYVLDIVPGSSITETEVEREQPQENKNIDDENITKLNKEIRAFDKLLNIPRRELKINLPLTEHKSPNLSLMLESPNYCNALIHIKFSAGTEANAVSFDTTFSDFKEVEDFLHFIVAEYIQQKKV

Biological target: Med17-HA (S. cerevisiae (endogenous in S288c)) (UniProt P32569)
Assay: affinity purification with mass spectrometry; CoIP of Med17-HA on anti-HA magnetic beads from cryoground yeast lysate, 2 h at 4 °C; 20 mM HEPES pH 7.5, 300 mM KOAc, 10% glycerol, 0.01% NP-40, 6 mM MnSO4, 1 mM DTT, Cyanase nuclease; parallel control CoIP from 15N-labelled wild type cells, mixing after purification (MAP); GeLC-MS/MS, three biological replicates

B1: Imb4 (protein, UniProt P40069 1-1113)
chain: MDQQFLSQLEQTLHAITSGVGLKEATKTLQTQFYTQPTTLPALIHILQNGSDDSLKQLAGVEARKLVSKHWNAIDESTRASIKTSLLQTAFSEPKENVRHSNARVIASIGTEELDGNKWPDLVPNLIQTASGEDVQTRQTAIFILFSLLEDFTSSLSGHIDDFLALFSQTINDPSSLEIRSLSAQALNHVSALIEEQETINPVQAQKFAASIPSVVNVLDAVIKADDTMNAKLIFNCLNDFLLLDSQLTGNFIVDLIKLSLQIAVNSEIDEDVRVFALQFIISSLSYRKSKVSQSKLGPEITVAALKVACEEIDVDDELNNEDETGENEENTPSSSAIRLLAFASSELPPSQVASVIVEHIPAMLQSANVFERRAILLAISVAVTGSPDYILSQFDKIIPATINGLKDTEPIVKLAALKCIHQLTTDLQDEVAKFHEEYLPLIIDIIDSAKNIVIYNYATVALDGLLEFIAYDAIAKYLDPLMNKLFYMLESNESSKLRCAVVSAIGSAAFAAGSAFIPYFKTSVHYLEKFIQNCSQIEGMSEDDIELRANTFENISTMARAVRSDAFAEFAEPLVNSAYEAIKTDSARLRESGYAFIANLAKVYGENFAPFLKTILPEIFKTLELDEYQFNFDGDAEDLAAFADSANEEELQNKFTVNTGISYEKEVASAALSELALGTKEHFLPYVEQSLKVLNEQVDESYGLRETALNTIWNVVKSVLLASKVEPESYPKGIPASSYVNADVLAVIQAARETSMGNLSDEFETSMVITVMEDFANMIKQFGAIIIMDNGDSSMLEALCMQVLSVLKGTHTCQTIDIEEDVPRDEELDASETEATLQDVALEVLVSLSQALAGDFAKVFDNFRPVVFGLFQSKSKNKRSSAVGAASELALGMKEQNPFVHEMLEALVIRLTSDKSLEVRGNAAYGVGLLCEYASMDISAVYEPVLKALYELLSAADQKALAAEDDEATREIIDRAYANASGCVARMALKNSALVPLEQTVPALLAHLPLNTGFEEYNPIFELIMKLYQENSPVITNETPRIIEIFSAVFTKENDRIKLEKESTLGREENMERLKQFQTEEMKHKVIELLKYLNTTYNGIVAQNPVLAAVIA
binding: binds

B2: Sxm1 (protein, UniProt Q04175 1-944)
chain: MVQEQAILSCIEQTMVADAKIIKEAEQQLFEFQKQPGFTSFLLNIVSDDNFALNVRLSSAIYLKNKIHRSWDTKREDGIKADEKLSIKERLIETLVKNCENNHIRPILTETINGILVGQEDWDLAPIIKNLLSSGDASYIYPGLLLLFQLCKAHRWDMVGSRDYIDSVIEELFPIVEGIASNIGSQTDYRSNEILYLILKSFKYACLNNLPQYFSQPERIMSWVQLHLYLCSKPLPVEVMELDPADRSLDKRVKVNKWGFGNLNRFLQRYNKITKAITKEFIDYIFNTIVPIILREFFKDIEAWGNNSLWLSDSSLYFLISFLEKCVTIDQLYPLIEPHLQIIFENVIFPCLCANEQSIELLEDDQEEYTRRYFDINREGSTPDAASADFIFLIGSKRPEKLNNILPFINDIFTRFDANSSDINMAFKEEGALRTLSNLFSFIDEPSVLENIFGHFIVPLLSQDKYMFLVARSLETIALYSEEFKDMNILSQLFELTYTNFLNSNVLPVQIEAADAIKCLIVSNPQIHPAVSAHVPGMMEKLLKLSKIFEIDILSEVMEALVERFSDELSPFAKDLASNLVEQFLRIAQALVENPSETYSASDQEQEIQASGLLQTMTTMVMSMNKVPLIESLAPVVKFVVLHAQISFITEAVDLLDALTISSHLLYNQIAPPIWELLHDILDSFQTYAMDYFEAYSIFFETIVMTGFPQDQTYVQPLLEILSAKLESEVDYDIEHVMQILMYFALSMRDIPLFSKAIKVSTNDELGLDSKCIVKLGLANLFAKPIETLQIMENEGFTINFFTNWFNEKFYSVFAIKLQVLVILTLLKMPEVPNSVSPLLNNLTNKLVELTLSLPKAIRNRDAVTEGKSLEGDLTPEEEEEYFIECDDDMKETVLDQINVFQEVHTFFKNLQNEDAGKYEKIINYLDESKRDSLQVILEFVSQH
binding: binds

B3: Pex19 (protein, UniProt Q07418 1-342)
chain: MNENEYDNFDDLDDLLDEDPTKLDEAEPDDVQAKGSVYNDSENKEKNAESKDSDGVQVANESEEDPELKEMMVDLQNEFANLMKNNGNENNVKTEDFNKLISALEEAAKVPHQQMEQGCSSLKSNSTDKGTVNGSNPGFKNIVSNTLDRLKENGNKVDTSLAEETKESQRSGQNNNIDDILSQLLDQMVASGGKESAENQFDLKDGEMDDAITKILDQMTSKEVLYEPMKEMRSEFGVWFQENGENEEHKEKIGTYKRQFNIVDEIVNIYELKDYDELKHKDRVTELLDELEQLGDSPIRSANSPLKHGNEEEELMKMLEIDGNDPNLGNLDKELTDGCKQQ
binding: binds

B4: Pdr1 (protein, UniProt P12383 1-1068)
chain: MRGLTPKNGVHIETGPDTESSADSSNFSTGFSGKIRKPRSKVSKACDNCRKRKIKCNGKFPCASCEIYSCECTFSTRQGGARIKNLHKTSLEGTTVQVKEETDSSSTSFSNPQRCTDGPCAVEQPTKFFENFKLGGRSSGDNSGSDGKNDDDVNRNGFYEDDSESQATLTSLQTTLKNLKEMAHLGTHVTSAIESIELQISDLLKRWEPKVRTKELATTKFYPNKSIETQLMKNKYCDVVHLTRYAAWSNNKKDQDTSSQPLIDEIFGLYSPFQFLSLQGIGKCFQNYRSKSKCEIFPRTAKETIYIMLRFFDVCFHHINQGCVSIANPLENYLQKMNLLPSTPSSISSAGSPNTAHTKSHVALVINHLPQPFVRNITGISNSELLSEMNNDISMFGILLKMLDMHKNSYQNFLMEITSNPSVAKNTQSIDVLQEFIHYCQAGEALIALCYSYYNSTLYNYVDFTCDITHLEQLLYFLDLLFWLSEIYGFEKVLNVAVHFVSRVGLSRWEFYVGLDENFAERRRNLWWKAFYFEKTLASKLGYPSNIDDSKINCLLPKNFRDVGFLDNRDFIENVHLVRRSEAFDNMCISDLKYYGELAVLQIVSHFSSSVLFNEKFTSIRNTSKPSVVREKLLFEVLEIFNETEMKYDAIKEQTGKLFDIAFSKDSTELKVSREDKIMASKFVLFYEHHFCRMVNESDNIVARLCVHRRPSILIENLKIYLHKIYKSWTDMNKILLDFDNDYSVYRSFAHYSISCIILVSQAFSVAEFIKVNDVVNMIRVFKRFLDIKIFSENETNEHVFNSQSFKDYTRAFSFLTIVTRIMLLAYGESSSTNLDVISKYIDENAPDLKGIIELVLDTNSCAYRFLLEPVQKSGFHLTVSQMLKNRKFQEPLMSNEDNKQMKHNSGKNLNPDLPSLKTGTSCLLNGIESPQLPFNGRSAPSPVRNNSLPEFAQLPSFRSLSVSDMINPDYAQPTNGQNNTQVQSNKPINAQQQIPTSVQVPFMNTNEINNNNNNNNNNKNNINNINNNNSNNFSATSFNLGTLDEFVNNGDLEDLYSILWSDVYPDS
binding: binds

These are yes or no findings as the source states them, for the method shown. Binding seen in cells or lysates may run through a third protein. Here binding means that the protein was enriched with, or labelled near, the bait; the list need not be complete.
